Reference: the supplement of paper PMC6445147
Values scatter widely in this assay.

B1: human tRNA-Pro; a variant is named by its letters at N, in order (parent)
chain: GGCTCGTTGGTCTAGNGGTATGATTCTCGCTTAGGGTGCGAGAGGTCCCGGGTTCNNATCCCGGACGAGCCC

Experiments:
[1] = variants of: B1; experiment: tRNA Pol-III promoter activity, log2 (circRNA frequency / plasmid DNA frequency) (log2 ratio); higher = stronger promoter activity; conditions: HEK293T; construct: no Pol-II promoter ((-)CMV library)
[2] = variants of: B1; experiment: tRNA 3' processing efficiency (processed reads / all reads, maximum-likelihood estimate) (fraction); higher = more efficient 3' processing; conditions: HEK293T; construct: no Pol-II promoter ((-)CMV library)
[3] = variants of: B1; experiment: tRNA 5' processing efficiency (processed reads / all reads, maximum-likelihood estimate) (fraction); higher = more efficient 5' processing; conditions: HEK293T; construct: CMV Pol-II promoter ((+)CMV library, decapped)

Row | Variant | tRNA Pol-III promoter activity (log2) [1] | tRNA 3' processing efficiency [2] | tRNA 5' processing efficiency [3]
1 | GAA G9C G18T T59C | 3.71 | 0.25 | –
2 | TAA T53A T59G | 5.53 | 0.67 | –
3 | GTT T53G | 5.03 | 0.25 | –
4 | GAT A14T G18A | 1.88 | 0.5 | –
5 | CGA G18A T59A | 4.03 | 0.5 | –
6 | GAA A14T A58C | -0.227 | 0.46 | –
7 | CAA A14G C55T A58T | 5.03 | 0.25 | –
8 | GTA A20T A58T | 3.55 | 0.51 | –
9 | GAA A20T T59C | 4.34 | 0.35 | –
10 | CAA A14C | 0.652 | 0.22 | –
11 | GAA T8C T19A T53A | 4.1 | 0.67 | –
12 | GTA T8G A20G | 1.62 | 0.4 | –
13 | GAA G17C | -2.72 | 0.44 | 0.2
14 | GAA G9T A20G | 0.681 | 0.11 | –
15 | GCA A14T T19A T59G | 6.84 | 0.14 | –
16 | TAC A14T | 4.07 | 0.29 | –
17 | GAA A14C T19A A20C T59A | 2.94 | 0.5 | –
18 | GAC T19G T59C | 3.94 | 0.25 | –
19 | GAA G50A A58C | 6.51 | 0.5 | –
20 | GAA T8G G15A T53C | 3.67 | 0.57 | –
21 | CAT T53G | 5.51 | 0.08 | –
22 | GAG T8G | 1.17 | 0.56 | 0.25
23 | GAA G15C | -2.04 | 0.29 | –

Row | Variant | tRNA Pol-III promoter activity (log2) [1] | tRNA 3' processing efficiency [2] | tRNA 5' processing efficiency [3]
24 | GAC G17A T53G C55T | 3.53 | 0.33 | –
25 | GGC T19C | 2.94 | 0.2 | –
26 | GAT G9A | 3.71 | 0.27 | –
27 | ATA G9A A58G | 5.75 | 0.43 | –
28 | GGA G18A A58G T59G | 6.94 | 0.62 | –
29 | CAC A14G | 3.33 | 0.53 | –
30 | GAA G18A T53G | 0.0956 | 0.5 | –
31 | GAT T19C | 1.16 | 0.27 | –
32 | GGA G17A T53G T59A | 5.25 | 0.6 | –
33 | GAA G17A T19A C55A | 4.69 | 0.88 | –
34 | GAA T8G A14T A20T | 4.67 | 0.4 | –
35 | GGA G9A C55T | 2.93 | 0.17 | –
36 | GAA A14T T19C T54C | 3.94 | 0.5 | –
37 | GAA T8G T53A | -0.116 | 0.25 | –
38 | ATA A14T | 2.36 | 0.25 | –
39 | CGA A20G C55G | 3.25 | 0.2 | –
40 | GAA G15A T53A T54A | 2.94 | 0.25 | –
41 | GAG A14G A20T | 2.38 | 0.45 | –
42 | GAA G17A A58C | 0.443 | 0.4 | –
43 | GAA G18A T19C T53A | 7.84 | 0.21 | –
44 | GTA G17A | 0.0226 | 0.22 | –
45 | GCA A14C T19G | 3.61 | 0.62 | –
46 | GAA T8C A14T A58C | 5.45 | 0.62 | –

Row | Variant | tRNA Pol-III promoter activity (log2) [1] | tRNA 3' processing efficiency [2] | tRNA 5' processing efficiency [3]
47 | GAA T19A A20T T53A | 4.23 | 0.38 | –
48 | GAT A14C T19C | 6.88 | 0.2 | –
49 | GGC T8A G9C G18T A20C C55T | 5.39 | 0.36 | –
50 | TAT A14T | 4.08 | 0.21 | –
51 | GAT A14T A20T | 1.45 | 0.25 | –
52 | CAA T53A T54C | 6.51 | 0.5 | –
53 | TAG G9A A14C | 3.93 | 0.25 | –
54 | GAT T19A A20T | 3.12 | 0.38 | –
55 | CAA T8C T54A | 3.67 | 0.4 | –
56 | GAA A14G A20G | 0.273 | 0.67 | –
57 | CAC G9A | 2.57 | 0.25 | –
58 | GTA T19C T59C | 4.03 | 0.25 | –
59 | GCT | 1.17 | 0.31 | 0.25
60 | TGA | 0.161 | 0.5 | –
61 | GGT C55G | 4.68 | 0.2 | –
62 | GGA T59A | 1.01 | 0.22 | –
63 | GAA G9T A20T T59G | 5.51 | 0.15 | –
64 | CCA | 1.01 | 0.27 | –
65 | GAA G15T T53A | 1.32 | 0.52 | 0.25
66 | AAT G18A | 1.86 | 0.2 | –
67 | CAA A14C A58T | 4.21 | 0.5 | –
68 | GAC A20T T59C | 4.16 | 0.17 | –
69 | GTA T8A | 0.524 | 0.32 | –

Row | Variant | tRNA Pol-III promoter activity (log2) [1] | tRNA 3' processing efficiency [2] | tRNA 5' processing efficiency [3]
70 | TTG A14G | 7.62 | 0.51 | –
71 | GAA A20C A58G T59A | 6.51 | 0.17 | –
72 | GAC A58C | 0.658 | 0.26 | 0.25
73 | TAC G9A | 4.24 | 0.25 | –
74 | GAA A14G G15A T59A | 2.77 | 0.4 | –
75 | GAG G35A | 4.25 | 0.2 | –
76 | TAT A58G | 3.39 | 0.22 | –
77 | GAA A14C T53A A58G | 3.94 | 0.57 | –
78 | CAA G15T T53A | 4.58 | 0.45 | –
79 | GAA G9T T53G | -0.727 | 0.22 | –
80 | GGA T8C T59G | 5.75 | 0.21 | –
81 | GAA G15T G17A T53A | 4.03 | 0.33 | –
82 | GAA T19G T53C | 0.431 | 0.2 | –
83 | GAA G18A A20T T53A | 4.48 | 0.15 | –
84 | GGT A58G T59A | 4.71 | 0.38 | –
85 | GTA A14G G18T | 2.32 | 0.17 | 0.2
86 | GTC T19G | 4.88 | 0.24 | –
87 | GGT A14G | 1.3 | 0.4 | –
88 | GAG A58C T59A | 1.3 | 0.5 | –
89 | GTT G15A G17T | 4.03 | 0.2 | –
90 | GAT G15T G18C | 2.94 | 0.38 | –
91 | GCA T19A T59G | 4.94 | 0.5 | –
92 | GAC A33T | 4.94 | 0.25 | –

2 entries from above, in CSV form:
Row,Variant,tRNA Pol-III promoter activity (log2) [1],tRNA 3' processing efficiency [2],tRNA 5' processing efficiency [3]
83,GAA G18A A20T T53A,4.48,0.15,–
84,GGT A58G T59A,4.71,0.38,–

More entries follow:

Row | Variant | tRNA Pol-III promoter activity (log2) [1] | tRNA 3' processing efficiency [2] | tRNA 5' processing efficiency [3]
93 | TAA T19A T54G | 3.94 | 0.62 | –
94 | GGA A14C A58C | 4.26 | 0.4 | –
95 | GAA A14T G18A T19A T59G | 6.62 | 0.5 | –
96 | GAA T8A A14G T59G | 2.84 | 0.29 | –
97 | GAA G17T A20G A58T | 3.51 | 0.33 | –
98 | GAG T8G T19G | 4.36 | 0.5 | –
99 | GCG A58G | 4.87 | 0.73 | –
100 | TTA G9A A14C | 2.93 | 0.25 | –
101 | GAA A14G T59A | -0.0122 | 0.5 | –
102 | GTA A14T A58G | 3.2 | 0.15 | –
103 | GAT A58T T59A | 4.67 | 0.67 | –
104 | CAA A20T T53G | 7.4 | 0.73 | –
105 | GCT T59G | 3.65 | 0.28 | –
106 | GAA T8C A20T | 2.54 | 0.33 | 0.25
107 | GGA T19G A20C | 9.8 | 0.94 | –
108 | CAA T8C T19G | 3.19 | 0.2 | –
109 | CAA A20T | -0.38 | 0.33 | –
110 | AAT A14T T53C | 3.93 | 0.75 | –
111 | TAT G18T T59G | 6.26 | 0.4 | –
112 | GAA G9T A14T T19A T59G | 4.21 | 0.33 | –
113 | GAA T8G A58C | -0.57 | 0.4 | –
114 | GAA G9T T19A T59C | 4.97 | 0.22 | –
